3 molecules from paper doi:10.1101/487009 can be followed below.

Protein sequences, listed by entry. Tags and fused reporters are not part of them.
UniProt Q9AUE0: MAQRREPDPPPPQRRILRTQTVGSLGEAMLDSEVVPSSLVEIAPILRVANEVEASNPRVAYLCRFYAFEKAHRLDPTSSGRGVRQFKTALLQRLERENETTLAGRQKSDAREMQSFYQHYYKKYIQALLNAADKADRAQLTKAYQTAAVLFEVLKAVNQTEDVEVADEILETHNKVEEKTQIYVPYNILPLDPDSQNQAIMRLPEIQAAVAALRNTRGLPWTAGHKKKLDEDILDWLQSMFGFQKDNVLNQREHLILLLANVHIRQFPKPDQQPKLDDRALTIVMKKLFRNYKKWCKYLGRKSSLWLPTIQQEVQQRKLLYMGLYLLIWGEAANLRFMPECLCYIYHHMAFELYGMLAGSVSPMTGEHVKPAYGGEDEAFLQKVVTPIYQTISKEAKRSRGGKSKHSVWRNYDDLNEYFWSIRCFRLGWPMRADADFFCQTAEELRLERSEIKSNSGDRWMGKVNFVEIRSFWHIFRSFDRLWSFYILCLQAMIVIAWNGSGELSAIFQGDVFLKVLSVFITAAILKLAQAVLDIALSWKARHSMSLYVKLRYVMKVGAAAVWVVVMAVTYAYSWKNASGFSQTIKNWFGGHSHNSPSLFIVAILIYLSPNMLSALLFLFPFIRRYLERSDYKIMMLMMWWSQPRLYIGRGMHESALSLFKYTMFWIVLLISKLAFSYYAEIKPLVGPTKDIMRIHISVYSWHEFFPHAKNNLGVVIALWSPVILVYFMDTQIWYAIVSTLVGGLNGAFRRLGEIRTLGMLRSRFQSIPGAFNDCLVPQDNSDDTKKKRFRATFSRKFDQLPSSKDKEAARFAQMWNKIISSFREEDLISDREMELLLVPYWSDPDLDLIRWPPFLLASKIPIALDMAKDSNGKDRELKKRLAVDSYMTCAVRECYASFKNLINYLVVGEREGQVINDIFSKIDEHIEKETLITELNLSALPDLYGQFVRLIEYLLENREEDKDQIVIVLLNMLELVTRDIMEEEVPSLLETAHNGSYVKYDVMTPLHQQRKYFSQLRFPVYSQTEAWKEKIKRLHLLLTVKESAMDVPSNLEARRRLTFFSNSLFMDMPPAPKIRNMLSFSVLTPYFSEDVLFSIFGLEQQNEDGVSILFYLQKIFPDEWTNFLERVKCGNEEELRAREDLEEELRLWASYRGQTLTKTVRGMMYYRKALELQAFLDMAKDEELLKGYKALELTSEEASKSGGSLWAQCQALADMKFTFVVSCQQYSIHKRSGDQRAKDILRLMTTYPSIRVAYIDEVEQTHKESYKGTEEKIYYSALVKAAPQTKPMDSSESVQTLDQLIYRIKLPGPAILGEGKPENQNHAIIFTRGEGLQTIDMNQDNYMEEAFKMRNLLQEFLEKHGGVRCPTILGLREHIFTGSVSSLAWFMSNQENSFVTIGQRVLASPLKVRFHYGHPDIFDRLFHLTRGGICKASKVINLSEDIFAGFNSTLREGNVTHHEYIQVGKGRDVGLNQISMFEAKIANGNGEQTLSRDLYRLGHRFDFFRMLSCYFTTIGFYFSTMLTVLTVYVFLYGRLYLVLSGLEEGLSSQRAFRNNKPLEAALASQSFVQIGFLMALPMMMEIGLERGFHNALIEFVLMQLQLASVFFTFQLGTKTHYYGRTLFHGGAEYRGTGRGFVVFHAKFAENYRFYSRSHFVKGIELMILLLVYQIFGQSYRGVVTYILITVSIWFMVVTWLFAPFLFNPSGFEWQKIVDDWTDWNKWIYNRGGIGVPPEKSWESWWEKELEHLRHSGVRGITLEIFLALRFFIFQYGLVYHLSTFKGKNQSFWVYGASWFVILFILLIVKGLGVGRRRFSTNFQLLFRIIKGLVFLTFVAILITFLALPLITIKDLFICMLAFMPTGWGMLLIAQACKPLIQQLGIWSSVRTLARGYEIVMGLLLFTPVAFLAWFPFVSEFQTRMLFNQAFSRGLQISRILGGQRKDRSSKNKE
UniProt Q9ZT82: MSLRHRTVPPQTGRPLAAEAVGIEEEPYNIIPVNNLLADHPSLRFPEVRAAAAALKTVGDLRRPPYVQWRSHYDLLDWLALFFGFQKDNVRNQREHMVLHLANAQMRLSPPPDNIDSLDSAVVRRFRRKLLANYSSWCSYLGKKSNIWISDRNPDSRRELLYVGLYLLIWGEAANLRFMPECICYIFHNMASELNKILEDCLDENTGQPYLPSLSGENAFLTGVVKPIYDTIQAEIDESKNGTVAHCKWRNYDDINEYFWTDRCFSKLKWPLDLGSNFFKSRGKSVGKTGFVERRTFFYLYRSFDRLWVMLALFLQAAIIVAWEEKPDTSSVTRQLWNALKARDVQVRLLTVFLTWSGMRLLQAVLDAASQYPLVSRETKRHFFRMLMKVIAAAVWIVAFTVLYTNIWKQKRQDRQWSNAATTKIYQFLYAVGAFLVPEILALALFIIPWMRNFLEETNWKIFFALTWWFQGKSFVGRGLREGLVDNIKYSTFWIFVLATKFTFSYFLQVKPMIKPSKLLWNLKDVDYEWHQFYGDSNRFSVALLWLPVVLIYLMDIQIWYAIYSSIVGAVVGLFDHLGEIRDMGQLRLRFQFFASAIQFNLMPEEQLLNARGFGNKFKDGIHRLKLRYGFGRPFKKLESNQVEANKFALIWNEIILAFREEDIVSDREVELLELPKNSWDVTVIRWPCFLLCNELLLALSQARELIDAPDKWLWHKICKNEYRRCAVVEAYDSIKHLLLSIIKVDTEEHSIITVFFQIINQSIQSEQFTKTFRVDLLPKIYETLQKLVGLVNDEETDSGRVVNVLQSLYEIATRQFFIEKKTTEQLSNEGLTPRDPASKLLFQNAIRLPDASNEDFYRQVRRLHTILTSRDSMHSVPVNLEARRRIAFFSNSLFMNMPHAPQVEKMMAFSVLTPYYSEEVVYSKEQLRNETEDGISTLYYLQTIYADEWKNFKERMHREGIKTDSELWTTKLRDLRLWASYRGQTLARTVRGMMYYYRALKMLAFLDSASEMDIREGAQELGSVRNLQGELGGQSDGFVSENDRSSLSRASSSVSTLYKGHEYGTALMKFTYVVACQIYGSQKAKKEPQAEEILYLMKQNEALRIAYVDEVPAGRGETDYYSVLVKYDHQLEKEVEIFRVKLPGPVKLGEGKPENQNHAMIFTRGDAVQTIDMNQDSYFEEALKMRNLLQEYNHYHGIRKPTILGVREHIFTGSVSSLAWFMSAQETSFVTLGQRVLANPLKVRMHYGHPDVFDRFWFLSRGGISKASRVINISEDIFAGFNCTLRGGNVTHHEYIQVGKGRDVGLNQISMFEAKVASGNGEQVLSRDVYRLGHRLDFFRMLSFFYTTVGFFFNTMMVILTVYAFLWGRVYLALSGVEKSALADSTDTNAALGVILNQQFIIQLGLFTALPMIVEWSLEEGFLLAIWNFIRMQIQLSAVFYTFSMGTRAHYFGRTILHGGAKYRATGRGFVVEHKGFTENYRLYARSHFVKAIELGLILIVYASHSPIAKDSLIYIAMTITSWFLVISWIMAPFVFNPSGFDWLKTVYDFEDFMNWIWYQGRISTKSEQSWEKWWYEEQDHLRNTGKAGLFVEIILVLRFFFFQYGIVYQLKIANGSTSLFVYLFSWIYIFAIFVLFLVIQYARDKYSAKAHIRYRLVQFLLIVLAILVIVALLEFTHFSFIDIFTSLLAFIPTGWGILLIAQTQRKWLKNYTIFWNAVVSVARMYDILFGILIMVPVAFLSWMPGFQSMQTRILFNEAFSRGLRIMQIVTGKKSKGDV

Test [1] has as its target T1, CRK2–YFP (Arabidopsis thaliana) (UniProt Q9CAL3).
T1 sequence: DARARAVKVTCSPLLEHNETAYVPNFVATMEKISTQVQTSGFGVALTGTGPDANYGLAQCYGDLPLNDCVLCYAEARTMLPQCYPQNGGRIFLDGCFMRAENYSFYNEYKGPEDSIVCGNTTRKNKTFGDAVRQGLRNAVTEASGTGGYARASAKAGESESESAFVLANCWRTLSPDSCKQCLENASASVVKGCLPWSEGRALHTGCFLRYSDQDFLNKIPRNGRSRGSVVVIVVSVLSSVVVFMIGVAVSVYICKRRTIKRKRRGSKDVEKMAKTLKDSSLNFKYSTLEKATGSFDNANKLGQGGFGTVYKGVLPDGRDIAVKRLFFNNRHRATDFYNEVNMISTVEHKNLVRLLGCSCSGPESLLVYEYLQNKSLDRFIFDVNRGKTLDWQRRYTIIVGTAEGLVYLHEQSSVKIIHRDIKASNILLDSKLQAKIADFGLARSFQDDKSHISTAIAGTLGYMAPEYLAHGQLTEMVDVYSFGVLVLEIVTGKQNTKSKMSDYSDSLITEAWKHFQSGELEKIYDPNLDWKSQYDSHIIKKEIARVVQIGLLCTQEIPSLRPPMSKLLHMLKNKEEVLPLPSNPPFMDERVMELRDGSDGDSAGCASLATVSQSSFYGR
Kind of test: affinity purification with mass spectrometry.

In test [2] the target is T1, CRK2–YFP (Arabidopsis thaliana). As to the kind of experiment: affinity purification with mass spectrometry. The source holds these as a separate data set.

Like-named read-outs stand apart in the source and are kept apart here. These are yes or no findings as the source states them, for the method shown. In cells and extracts the contact can be indirect. Here binding means that the protein was enriched with, or labelled near, the bait; the list need not be complete. Tags and fused reporters may be left off the sequences shown.

“CALLOSE SYNTHASE 1 (from UniProt Q9AUE0 1-1950) (enzyme)”: the binding entry in test [1] is reported as “binds”.

On to “CALS12 (from UniProt Q9ZT82 1-1780) (enzyme)”, for which the binding result in test [1] was “binds”.

B1: PHOSPHOLIPASE D ALPHA 1 (enzyme, UniProt Q38882 1-810)
chain: MAQHLLHGTLHATIYEVDALHGGGVRQGFLGKILANVEETIGVGKGETQLYATIDLQKARVGRTRKIKNEPKNPKWYESFHIYCAHLASDIIFTVKDDNPIGATLIGRAYIPVDQVINGEEVDQWVEILDNDRNPIQGGSKIHVKLQYFHVEEDRNWNMGIKSAKFPGVPYTFFSQRQGCKVSLYQDAHIPDNFVPRIPLAGGKNYEPQRCWEDIFDAISNAKHLIYITGWSVYAEIALVRDSRRPKPGGDVTIGELLKKKASEGVRVLLLVWDDRTSVDVLKKDGLMATHDEETENFFRGSDVHCILCPRNPDDGGSIVQSLQISTMFTHHQKIVVVDSEMPSRGGSEMRRIVSFVGGIDLCDGRYDTPFHSLFRTLDTVHHDDFHQPNFTGAAITKGGPREPWHDIHSRLEGPIAWDVMYNFEQRWSKQGGKDILVKLRDLSDIIITPSPVMFQEDHDVWNVQLFRSIDGGAAAGFPESPEAAAEAGLVSGKDNIIDRSIQDAYIHAIRRAKDFIYVENQYFLGSSFAWAADGITPEDINALHLIPKELSLKIVSKIEKGEKFRVYVVVPMWPEGLPESGSVQAILDWQRRTMEMMYKDVIQALRAQGLEEDPRNYLTFFCLGNREVKKDGEYEPAEKPDPDTDYMRAQEARRFMIYVHTKMMIVDDEYIIIGSANINQRSMDGARDSEIAMGGYQPHHLSHRQPARGQIHGFRMSLWYEHLGMLDETFLDPSSLECIEKVNRISDKYWDFYSSESLEHDLPGHLLRYPIGVASEGDITELPGFEFFPDTKARILGTKSDYLPPILTT
In the case of B1, the binding entry in test [2] is on record as “binds”.
